# Values joined by “and” are separate entries in the source; they are usually repeats but may differ in a detail not shown here. Equal values may be shown once. This list was built around the results that the source calls inconclusive (neither active nor inactive); the mix of calls is not that of the screen. Potencies of inconclusive entries are doubtful fits and often do not repeat. Active and inactive are the calls of the source. Rule for the calls: active = hit-call score of the fitted dose curve at least 0.9, where 1 is the maximum; inconclusive = response in the unintended direction; inactive = score below 0.9. Peptide text beside a SMILES is read from it.
# By UniProt entry, the sequences of proteins in these tests, tags left out.
# UniProt P10276, whole entry, looked up: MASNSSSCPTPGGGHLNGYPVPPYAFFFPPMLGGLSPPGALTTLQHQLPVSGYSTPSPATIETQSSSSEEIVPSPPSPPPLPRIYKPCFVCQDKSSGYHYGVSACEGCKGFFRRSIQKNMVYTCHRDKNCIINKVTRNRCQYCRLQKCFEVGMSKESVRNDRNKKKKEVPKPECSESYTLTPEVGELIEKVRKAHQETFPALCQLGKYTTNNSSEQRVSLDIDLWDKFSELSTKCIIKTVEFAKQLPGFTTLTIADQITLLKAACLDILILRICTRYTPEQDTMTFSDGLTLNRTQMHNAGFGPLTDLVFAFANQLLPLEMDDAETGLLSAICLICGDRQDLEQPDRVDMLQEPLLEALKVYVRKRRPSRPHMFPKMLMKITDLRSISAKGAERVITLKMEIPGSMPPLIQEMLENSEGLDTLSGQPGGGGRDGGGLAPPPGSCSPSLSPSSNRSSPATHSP
# Biological target: Retinoic acid receptor alpha (Homo sapiens) (UniProt P10276)
# Experiment: ATG_RARa_TRANS: Attagene TRANS-FACTORIAL HepG2 Assay for human Retinoic Acid Receptor alpha (RARa) (AID 2283005);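 for AC50: potency for increased reporter signal meaning RARa activation over DMSO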
# Description: ATG_TRANS is a cell-based, multiplexed-readout assay that uses HepG2, a human liver cell line, with measurements taken at 24 hours after chemical dosing in a 24-well plate.ATG_RARa_TRANS is one of 30 assay component(s) measured or calculated from the ATG_TRANS assay. It is designed to make measurements of mRNA induction, a form of inducible reporter, as detected with fluorescence intensity signals by Reverse transcription polymerase chain reaction (RT-PCR) and Capillary electrophoresis technology.Data from the assay component ATG_RARa_TRANS was analyzed into 1 assay endpoint. This assay endpoint, ATG_RARa_TRANS, was analyzed in the positive analysis fitting direction relative to DMSO as the negative control and baseline of activity. Using a type of inducible reporter, measures of mRNA for gain-of-signal activity can be used to understand the reporter gene at the transcription factor-level as they relate to the gene RARA. Furthermore, this assay endpoint can be referred to as a primary readout, because this assay has produced multiple assay endpoints where this one serves a reporter gene function. To generalize the intended target to other relatable targets, this assay endpoint is annotated to the nuclear receptor intended target family, where the subfamily is non-steroidal.
# Human liver HepG2 cells are transiently transfected with multiple reporter transcription units (MRTUs) in 6-well plates using FuGene 6 reagent (Roche; 3 ml FuGene/1 mg DNA). The MRTU constructs are regulated by a cis-regulating element (promoter). […] A major difference between the CIS and TRANS system is that in CIS activities of endogenous TFs are measured, whereas the TRANS assay evaluates changes in activities of exogenous, chimeric NR-Gal4 proteins. […] At the end of 24 hour incubation, total RNA was isolated using TriZol reagent (Invitrogen). The isolated RNA is then reverse-transcribed using oligo(dT) primer and Mo-MLV reverse transcriptase (Invitrogen) with DNAse I (Ambion) treatment for 30 min. The one-tenth of the produced cDNA was amplified by PCR using Taq DNA polymerase (Invitrogen) and two reporter sequence-specific primers. The PCR products were fluorescently labeled by primer extension with 6-arboxyfluorescein (6-FAM) 5'-labeled reporter sequence-specific primer (2 min at 95 C, 20 s at 68 C and 10 min at 72 C) and these products were digested with 5U of HpaI (New England Biolabs) for 2h at 37 C. The fragments were purified using Qiaquick PCR columns (Qiagen), analyzed on an ABI 3130xL genetic analyzer (Applied Biosystems) with peak positions identified by using a set of X-rhodamine (ROX)-labeled MapMarker1000 molecular weight standards (BioVentures). The raw capillary electrophoresis data was processed using Attagraph software (Attagene).
Structure (SMILES),AC50,outcome
COCc1nnc(-c2ccc[n+]([O-])c2)n1-c1c(Cl)c(Cl)cc2[nH]c(=O)c(=O)[nH]c12,inconclusive: 179 µM,–
Cc1c(C2(c3cc(Br)c(O)c(Br)c3C)OS(=O)(=O)c3ccccc32)cc(Br)c(O)c1Br,inconclusive: 80.5 µM,–
Clc1cc(Cl)c(-c2c(Cl)c(Cl)cc(Cl)c2Cl)cc1Cl,inconclusive: 4.53 µM,–
Nc1ccnc(=O)[nH]1,inconclusive: 100 µM,–
CC(C)=CCOC(=O)c1ccccc1,inconclusive: 100 µM,–
CCCCCc1ccc(O)cc1,inconclusive: 60.3 µM,–
Fc1c(F)c(F)c(Br)c(F)c1F,–,inactive
O=C1C(c2[nH]c3ccc(S(=O)(=O)O)cc3c2O)=Nc2ccc(S(=O)(=O)O)cc21,inconclusive: 186 µM,–
OCCNCCO,inconclusive: 9.23 µM,–
CC1=CC[C@@H]2C[C@H]1C2(C)C,inconclusive: 183 µM,–
CC1(C)CCC[C@]2(C)[C@H]3CCO[C@]3(C)CC[C@@H]12,inconclusive: 174 µM,–
C=CC(C)(O)CC/C=C(\C)CC (stereo not given),–,inactive
CCCCC/C=C\C=C\C(=O)OCC,inconclusive: 3.93 µM,–
CC(=O)c1ccc[nH]1,–,inactive
O=C(Nc1ccccc1)c1cc(Cl)ccc1O,–,inactive
COC(=O)[C@H](Cc1ccccc1)NC(=O)[C@@H](N)CC(=O)O (HELM PEPTIDE1{D.F.[CO[*:1]]}$$$$V2.0),–,inactive
O=C1CCCCC1C1CCCCC1 (stereo not given),–,inactive

Structure (SMILES),AC50,outcome
OCCOCCN1CCN(C2=Nc3ccccc3Sc3ccccc32)CC1,inconclusive: 156 µM,–
CCCCCCCC/C=C\CCCCCCCC(=O)OC[C@@H](O)[C@H]1OC[C@H](O)[C@H]1O,–,inactive
O=[Si]=O,–,inactive
COC(=O)C1CCC(C(=O)OC)CC1 (stereo not given),inconclusive: 590 nM and inconclusive: 100 µM,–
CCCCCOC(C)=O,inconclusive: 173 µM,–
COc1cc(C)ccc1O,–,inactive
OCCN(CCO)c1ccccc1,–,inactive
CC/C=C\CC/C=C/CO,inconclusive: 100 µM,–
CCCCCCCO,inconclusive: 2.43 µM,–
C[Si](C)O[Si](C)(C)O[Si](C)(C)O[Si](C)C,inconclusive: 100 µM,–
CC(CN=Cc1ccccc1O)N=Cc1ccccc1O (stereo not given),inconclusive: 100 µM,–
CC(Cl)COP(=O)(OCC(C)Cl)OCC(C)Cl (stereo not given),–,inactive
CCCC[P+](CCCC)(CCCC)CCCC,–,inactive
CCCCCCCOC(C)=O,inconclusive: 171 µM,–
NCCO,–,inactive
N#Cc1ccc(CC(=O)c2cccc(C(F)(F)F)c2)cc1,inconclusive: 42.2 µM,–

# No new results follow: an excerpt of the list.
Structure (SMILES),AC50,outcome
CCCCCCCOC(C)=O,inconclusive: 171 µM,–
NCCO,–,inactive

# From PubChem BioAssay (EPA / NIEHS)
